Record: PubChem BioAssay AID743121 (NCATS, 2013)

Aim: 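Knock-downs that sensitise breast cancer cells to camptothecin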 (primary screen)
Cells: MDA-MB-231 cells, a human breast cancer line
Reagent: single siRNA against human genes, 20 nM siRNA (0.8 pmol per well)
Time to read-out: 120 h (drug added 48 h after transfection, read 72 h later)
Conditions: camptothecin 20 nM (about EC30) for 72 h; vehicle 0.1% DMSO in parallel plates
Detection: 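CellTiter-Glo ATP signal, scaled to control siRNA as percent viability; sensitisation given as log2 of untreated divided by camptothecin-treated viability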
Scale: log2 vehicle/camptothecin viability: higher = stronger sensitisation to camptothecin; viability with camptothecin and viability without drug: higher = more viable cells
Active means: 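Each gene scored by redundant siRNA activity (RSA) over its individual siRNA ratios; a gene is called active at p < 0.001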
Shown is a random part of about 26,000 deposited reagents. 167 of all reagents (0.63%) were called active. 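Calls are per gene from RSA p-values that are not deposited; an individual active-marked siRNA can sensitise only weakly.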 Reagents against one gene are numbered here.

gene | siRNA no. | log2 vehicle/camptothecin viability | viability with camptothecin (% of control) | viability without drug (% of control) | call
RAB18 (RAB18, member RAS oncogene family) | 1 | -0.213 | 120 | 104 | inactive
RAB18 (RAB18, member RAS oncogene family) | 2 | -0.149 | 101 | 91.1 | inactive
RAB18 (RAB18, member RAS oncogene family) | 3 | 0.33 | 79.5 | 99.9 | inactive
TAB3 (TGF-beta activated kinase 1 (MAP3K7) binding protein 3) | 1 | 0.0826 | 95.2 | 101 | inactive
TAB3 (TGF-beta activated kinase 1 (MAP3K7) binding protein 3) | 2 | -0.0956 | 95.3 | 89.2 | inactive
TAB3 (TGF-beta activated kinase 1 (MAP3K7) binding protein 3) | 3 | -0.23 | 115 | 97.8 | inactive
TAB3 (TGF-beta activated kinase 1 (MAP3K7) binding protein 3) | 4 | -0.247 | 119 | 100 | inactive
OR8G1 (olfactory receptor family 8 subfamily G member 1) | 1 | -0.126 | 109 | 100 | inactive
OR8G1 (olfactory receptor family 8 subfamily G member 1) | 2 | -0.0965 | 105 | 98.1 | inactive
OR8G1 (olfactory receptor family 8 subfamily G member 1) | 3 | -0.0687 | 112 | 107 | inactive
OR8G1 (olfactory receptor family 8 subfamily G member 1) | 4 | -0.31 | 87.4 | 70.5 | inactive
ZNF444 (zinc finger protein 444) | 1 | -0.157 | 63.6 | 57.1 | inactive
ZNF444 (zinc finger protein 444) | 2 | 0.781 | 44.8 | 77 | inactive
ZNF444 (zinc finger protein 444) | 3 | -0.185 | 57.3 | 50.4 | inactive
ZNF444 (zinc finger protein 444) | 4 | 0.0285 | 77.8 | 79.3 | inactive
PROK1 (prokineticin 1) | 1 | -0.228 | 48.9 | 41.7 | inactive
PROK1 (prokineticin 1) | 2 | -0.391 | 90.4 | 69 | inactive
PROK1 (prokineticin 1) | 3 | 0.161 | 79.3 | 88.7 | inactive
PROK1 (prokineticin 1) | 4 | 0.863 | 40.4 | 73.4 | inactive
XRCC2 (X-ray repair cross complementing 2) | 1 | -0.0863 | 95 | 89.5 | inactive
XRCC2 (X-ray repair cross complementing 2) | 2 | -0.0567 | 96.4 | 92.6 | inactive
XRCC2 (X-ray repair cross complementing 2) | 3 | -0.325 | 110 | 88.1 | inactive
RAD17 (RAD17 checkpoint clamp loader component) | 1 | -0.165 | 90.8 | 81 | inactive
RAD17 (RAD17 checkpoint clamp loader component) | 2 | -0.272 | 90.4 | 74.9 | inactive
RAD17 (RAD17 checkpoint clamp loader component) | 3 | -0.445 | 98.1 | 72.1 | inactive
RAD17 (RAD17 checkpoint clamp loader component) | 4 | 0.162 | 78 | 87.2 | inactive
PPFIA1 (PPFI scaffold protein A1) | 1 | -0.0757 | 89.1 | 84.6 | inactive
PPFIA1 (PPFI scaffold protein A1) | 2 | -0.142 | 68.5 | 62.1 | inactive
PPFIA1 (PPFI scaffold protein A1) | 3 | -0.154 | 82.9 | 74.5 | inactive
PPFIA1 (PPFI scaffold protein A1) | 4 | -0.334 | 79.7 | 63.2 | inactive
TYRP1 (tyrosinase related protein 1) | 1 | 0.0897 | 99.3 | 106 | inactive
TYRP1 (tyrosinase related protein 1) | 2 | -0.298 | 56.9 | 46.3 | inactive
TYRP1 (tyrosinase related protein 1) | 3 | -0.258 | 116 | 97.2 | inactive
TYRP1 (tyrosinase related protein 1) | 4 | -0.19 | 54.5 | 47.7 | inactive
OSCAR (osteoclast associated Ig-like receptor) | 1 | -0.291 | 108 | 88 | inactive
OSCAR (osteoclast associated Ig-like receptor) | 2 | -0.433 | 83.1 | 61.5 | inactive
OSCAR (osteoclast associated Ig-like receptor) | 3 | -0.547 | 10.3 | 7.02 | inactive
OSCAR (osteoclast associated Ig-like receptor) | 4 | -0.246 | 123 | 104 | inactive

A few values from above.
Result for PPFIA1 (PPFI scaffold protein A1) #3 in “viability without drug (% of control)”: 74.5
For “call”, PPFIA1 (PPFI scaffold protein A1) #1 is entered as inactive
For “viability with camptothecin (% of control)”, TAB3 (TGF-beta activated kinase 1 (MAP3K7) binding protein 3) #2 shows 95.3
Result of PROK1 (prokineticin 1) #3 in “log2 vehicle/camptothecin viability”: 0.161
For “call”, OSCAR (osteoclast associated Ig-like receptor) #2 shows inactive
OR8G1 (olfactory receptor family 8 subfamily G member 1) #4, viability without drug (% of control): 70.5

The listing continues.
gene | siRNA no. | log2 vehicle/camptothecin viability | viability with camptothecin (% of control) | viability without drug (% of control) | call
PYGO1 (pygopus family PHD finger 1) | 1 | -0.107 | 88.8 | 82.5 | inactive
PYGO1 (pygopus family PHD finger 1) | 2 | 0.637 | 52.5 | 81.6 | inactive
PYGO1 (pygopus family PHD finger 1) | 3 | 0.2 | 102 | 118 | inactive
PYGO1 (pygopus family PHD finger 1) | 4 | -0.241 | 114 | 96.8 | inactive
RPL10P16 (ribosomal protein L10 pseudogene 16) | 1 | 0.00751 | 88.5 | 89 | inactive
TXNDC8 (thioredoxin domain containing 8) | 1 | -0.234 | 91.8 | 78 | inactive
TXNDC8 (thioredoxin domain containing 8) | 2 | -0.155 | 83.4 | 74.9 | inactive
TXNDC8 (thioredoxin domain containing 8) | 3 | -0.142 | 95.1 | 86.1 | inactive
TXNDC8 (thioredoxin domain containing 8) | 4 | -0.394 | 68.3 | 52 | inactive
POLN (DNA polymerase nu) | 1 | -0.239 | 82.5 | 69.9 | inactive
POLN (DNA polymerase nu) | 2 | -0.126 | 74 | 67.8 | inactive
POLN (DNA polymerase nu) | 3 | -0.168 | 111 | 98.8 | inactive
POLN (DNA polymerase nu) | 4 | -0.316 | 71.8 | 57.7 | inactive
DYRK2 (dual specificity tyrosine phosphorylation regulated kinase 2) | 1 | -0.163 | 81.4 | 72.7 | inactive
DYRK2 (dual specificity tyrosine phosphorylation regulated kinase 2) | 2 | 0.0322 | 46.9 | 48 | inactive
DYRK2 (dual specificity tyrosine phosphorylation regulated kinase 2) | 3 | -0.166 | 82.8 | 73.8 | inactive
DYRK2 (dual specificity tyrosine phosphorylation regulated kinase 2) | 4 | -0.258 | 65.8 | 55 | inactive
TP53BP1 (tumor protein p53 binding protein 1) | 1 | -0.289 | 102 | 83.8 | inactive
TP53BP1 (tumor protein p53 binding protein 1) | 2 | -0.121 | 96.2 | 88.5 | inactive
TP53BP1 (tumor protein p53 binding protein 1) | 3 | 0.676 | 44.5 | 71.1 | inactive
TP53BP1 (tumor protein p53 binding protein 1) | 4 | -0.19 | 91.1 | 79.8 | inactive
ERBB3 (erb-b2 receptor tyrosine kinase 3) | 1 | -0.468 | 56.2 | 40.6 | inactive
ERBB3 (erb-b2 receptor tyrosine kinase 3) | 2 | -0.229 | 95.2 | 81.3 | inactive
ERBB3 (erb-b2 receptor tyrosine kinase 3) | 3 | -0.144 | 61.2 | 55.4 | inactive
ERBB3 (erb-b2 receptor tyrosine kinase 3) | 4 | 0.118 | 86.5 | 93.9 | inactive
ERBB3 (erb-b2 receptor tyrosine kinase 3) | 5 | -0.302 | 82.6 | 67 | inactive
ERBB3 (erb-b2 receptor tyrosine kinase 3) | 6 | -0.249 | 114 | 95.7 | inactive
ERBB3 (erb-b2 receptor tyrosine kinase 3) | 7 | -0.268 | 98 | 81.4 | inactive
ERBB3 (erb-b2 receptor tyrosine kinase 3) | 8 | -0.245 | 67.6 | 57.1 | inactive
CA4 (carbonic anhydrase 4) | 1 | -0.233 | 61.9 | 52.6 | inactive
CA4 (carbonic anhydrase 4) | 2 | -0.0691 | 20.1 | 19.2 | inactive
CA4 (carbonic anhydrase 4) | 3 | -0.00851 | 44.3 | 44 | inactive
